From the supplement of paper PMC12889115
The other results are listed elsewhere or left out. These are raw signals, not scaled to a control.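 In the initial screen, polymyxin B was used at a concentration that permeabilizes Salmonella's outer membrane but not its inner membrane. Maximum growth was set by DMSO wells with or without polymyxin B. Since plates varied, data were ranked per plate, and compounds giving the lowest OD600 advanced as hits.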

Test system: Salmonella enterica serovar Typhimurium SL1344
Assay: bacterial growth OD600 after 18 h with compound and polymyxin B; higher = more bacterial growth (less inhibition)
Conditions: 50 µM, Mueller-Hinton broth

Row | SMILES | bacterial growth OD600 (polymyxin B 1 µg/mL) | bacterial growth OD600 (polymyxin B 0.75 µg/mL)
1 | COc1ccc(OC2CCN(C3CCCC3)CC2)c(C(=O)NCCCSC)c1 | 0.994 | –
2 | CCOC(=O)C1CCN(Cc2nc(Cc3ccccc3F)no2)CC1 | 0.842 | –
3 | O=S(=O)(NCc1cccnc1Oc1ccccc1)c1cccnc1 | 1.15 | –
4 | CN(C(=O)c1ccco1)C(Cc1ccccc1Cl)C1CCN(Cc2cccc3ncccc23)CC1 (stereo unspecified) | – | 0.801
5 | COc1ccc(CC(=O)N(C)CC2CCCN(CCc3ccccc3F)C2)cc1OC (stereo unspecified) | 0.931 | –
6 | Cc1ocnc1C(=O)NC1CC(=O)N(Cc2ccccc2Cl)C1 (stereo unspecified) | 0.88 | –
7 | CCC1CN(Cc2ccc(OC)c(OC)c2OC)Cc2ccc(Cl)cc2O1 (stereo unspecified) | – | 0.573
8 | O=C(NCC1(N2CCOCC2)CCCC1)c1cc(COc2cccc(F)c2)[nH]n1 | 0.91 | –
9 | CCC(=O)C1CCCN(C(=O)CC2(c3ccc(OC)cc3)CC(=O)N(C3CC3)C2=O)C1 (stereo unspecified) | – | 0.913
10 | Cc1nc2ccccc2n1Cc1cc(C(=O)NCCOc2cccnc2)n[nH]1 | 1.09 | –
11 | CCOC(=O)CNC(=O)N1CCc2onc(-c3cccc(F)c3)c2C1 | – | 0.862
12 | Cc1nc(N2CCCCCCC2)ncc1C(C)NCc1ccccc1 (stereo unspecified) | – | 0.001
13 | Cc1cc2nc(N3CCC(C(=O)NCC4COCCO4)CC3)nc(C)c2cc1C (stereo unspecified) | – | 0.836
14 | COc1cccc(CN2CCCC(O)(CN3CCC(C)CC3)C2=O)c1 (stereo unspecified) | 0.791 | –
15 | C[C@@H]1CN(C2(C(=O)N3CCSCC3)Cc3ccccc3C2)C[C@H](C)O1 | – | 0.846
16 | CCc1nc2cc(NC(C)=O)cc(C(=O)N3CCCC(COC)C3)c2n1Cc1cccnc1 (stereo unspecified) | – | 0.908

Compounds 4–5, quoted:
Row | SMILES | bacterial growth OD600 (polymyxin B 1 µg/mL) | bacterial growth OD600 (polymyxin B 0.75 µg/mL)
4 | CN(C(=O)c1ccco1)C(Cc1ccccc1Cl)C1CCN(Cc2cccc3ncccc23)CC1 (stereo unspecified) | – | 0.801
5 | COc1ccc(CC(=O)N(C)CC2CCCN(CCc3ccccc3F)C2)cc1OC (stereo unspecified) | 0.931 | –

Next part.

Row | SMILES | bacterial growth OD600 (polymyxin B 1 µg/mL) | bacterial growth OD600 (polymyxin B 0.75 µg/mL)
17 | COC(=O)[C@@H]1CCCN1C(=O)Cc1ccc(N2CCC(NCc3ccc(Cl)s3)CC2)cc1 | – | 0.791
18 | Cc1ccc(CN(C)C(=O)C2CCCN(C3CCN(C(=O)C4CC4)CC3)C2)cc1 (stereo unspecified) | – | 0.775
19 | CCCN(CC1CCCO1)c1ccc(-c2nc(COC)no2)cn1 (stereo unspecified) | 0.949 | –
20 | CC#CCN1C(=O)NC(CCc2ccccc2)(C2CCN(Cc3ccc(OC)cc3O)CC2)C1=O (stereo unspecified) | – | 0.731
21 | CCC1CN(C(=O)c2ccc(NC)nc2)CCN1C(C)C (stereo unspecified) | – | 0.816
22 | O=C(CCc1ccco1)NCc1cccnc1-n1cnc2ccccc21 | 0.862 | –
23 | C=CCC(=O)N1CCC(C(=O)Nc2cccc(-c3cccc(Cl)c3)c2)CC1 | 0.764 | –
24 | CCN1CCN(C(=O)c2ccc3oc(-c4cccc(F)c4)nc3c2)CC1 | – | 0.798
25 | COc1ccc(CN(C)C(=O)CCC2(Cc3ccc(Cl)cc3)CCC(=O)N2)cc1OC (stereo unspecified) | – | 0.909
26 | O=C(NCc1ccco1)NC1CC(=O)N(CCCc2ccccc2)C1 (stereo unspecified) | 0.861 | –
27 | COc1ccc(CC2(CCC(=O)NCCc3ccccc3C(F)(F)F)CCC(=O)N2)c2ccccc12 (stereo unspecified) | – | -0.019
28 | Cc1ccccc1CCN1CCCC(CN(C)C(=O)c2cc[n+]([O-])cc2)C1 (stereo unspecified) | – | 0.812
29 | C[C@@H]1C[C@@H](C(=O)NCc2nc(NCCCc3ccccc3)c3ccccc3n2)NC(=S)N1 | – | 0.829
30 | COc1ccc(OC)c(CNC(=O)c2cc(NC(=O)C3CCCO3)c3c(c2)nc(C2CCC2)n3C)c1 (stereo unspecified) | – | 0.943
31 | CCS(=O)(=O)c1ncc(CN2CCN(C(C)=O)CC2)n1CCCc1ccccc1 | 0.777 | –
